Here are results for 1 compound from patent publication US20170000805A1, “FOOD SUPPLEMENTATION COMPOSITION CONTAINING ONE OR MORE VITAMIN D3 COMPOUNDS AND ONE OR MORE MAGNESIUM SALTS” (DSM IP ASSETS B.V., priority 2006, published 2017).

The data set in a line: MgCl2 and Hy-D dosed into the rumen of fistulated cattle: urine pH, urine and blood plasma minerals. The note with it: mature rumen fistulated cattle, treatment dosed daily into rumen over 2 weeks. The class given is in vivo. As for the experimental part: Four mature rumen fistulated cattle (approximately 600 kg […] in individual pens and offered 12 kg/day of good quality lucerne chaff throughout the experiment. After a 2 week adaptation to this diet the following treatments were applied daily over 2 weeks to each animal in a Latin Square Design: 1. no supplement (control) 2. […] 3. […]® 1.25% (5 mg 25-hydroxy vitamin D3) MgCl2 plus […]® 1.25 % Each treatment was dosed into the rumen through a cannula each morning during the 2 week experimental period. […] Urine pH was measured at time of collection; blood plasma was decanted after centrifugation and analyzed for calcium, magnesium, potassium, sodium and phosphorus by inductively coupled plasma atomic emission spectrophotometry. The results were analysed as a latin square design making comparisons between treatments after removal of any animal or period effects. The lucerne […] assayed for macro cations together with chloride and sulphur concentrations.

Take `[Cl-].[Cl-].[Mg+2]` [Mg, magnesium chloride]: the “Feed Intake” value is 11.8 kg/day. This compound displayed a Liveweight (12 kg/day lucerne chaff) of 602 kg.
